# Test results taken from paper PMC3387162.
# The chains behind the UniProt entries cited, without tags or fusion partners. Residues count along the entry.
# UniProt P62812, residues 28-455: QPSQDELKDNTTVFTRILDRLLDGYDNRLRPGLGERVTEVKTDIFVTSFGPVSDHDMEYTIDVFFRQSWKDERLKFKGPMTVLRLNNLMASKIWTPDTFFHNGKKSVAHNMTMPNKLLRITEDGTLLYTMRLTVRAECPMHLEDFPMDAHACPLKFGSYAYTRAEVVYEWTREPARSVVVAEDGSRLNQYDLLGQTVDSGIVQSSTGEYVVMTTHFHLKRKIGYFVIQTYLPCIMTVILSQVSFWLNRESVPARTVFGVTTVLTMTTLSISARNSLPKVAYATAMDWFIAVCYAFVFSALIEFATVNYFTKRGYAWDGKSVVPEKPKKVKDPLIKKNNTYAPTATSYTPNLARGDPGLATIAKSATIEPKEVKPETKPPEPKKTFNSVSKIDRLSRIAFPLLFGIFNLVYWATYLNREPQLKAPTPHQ
# UniProt Q9CS84, residues 31-1514: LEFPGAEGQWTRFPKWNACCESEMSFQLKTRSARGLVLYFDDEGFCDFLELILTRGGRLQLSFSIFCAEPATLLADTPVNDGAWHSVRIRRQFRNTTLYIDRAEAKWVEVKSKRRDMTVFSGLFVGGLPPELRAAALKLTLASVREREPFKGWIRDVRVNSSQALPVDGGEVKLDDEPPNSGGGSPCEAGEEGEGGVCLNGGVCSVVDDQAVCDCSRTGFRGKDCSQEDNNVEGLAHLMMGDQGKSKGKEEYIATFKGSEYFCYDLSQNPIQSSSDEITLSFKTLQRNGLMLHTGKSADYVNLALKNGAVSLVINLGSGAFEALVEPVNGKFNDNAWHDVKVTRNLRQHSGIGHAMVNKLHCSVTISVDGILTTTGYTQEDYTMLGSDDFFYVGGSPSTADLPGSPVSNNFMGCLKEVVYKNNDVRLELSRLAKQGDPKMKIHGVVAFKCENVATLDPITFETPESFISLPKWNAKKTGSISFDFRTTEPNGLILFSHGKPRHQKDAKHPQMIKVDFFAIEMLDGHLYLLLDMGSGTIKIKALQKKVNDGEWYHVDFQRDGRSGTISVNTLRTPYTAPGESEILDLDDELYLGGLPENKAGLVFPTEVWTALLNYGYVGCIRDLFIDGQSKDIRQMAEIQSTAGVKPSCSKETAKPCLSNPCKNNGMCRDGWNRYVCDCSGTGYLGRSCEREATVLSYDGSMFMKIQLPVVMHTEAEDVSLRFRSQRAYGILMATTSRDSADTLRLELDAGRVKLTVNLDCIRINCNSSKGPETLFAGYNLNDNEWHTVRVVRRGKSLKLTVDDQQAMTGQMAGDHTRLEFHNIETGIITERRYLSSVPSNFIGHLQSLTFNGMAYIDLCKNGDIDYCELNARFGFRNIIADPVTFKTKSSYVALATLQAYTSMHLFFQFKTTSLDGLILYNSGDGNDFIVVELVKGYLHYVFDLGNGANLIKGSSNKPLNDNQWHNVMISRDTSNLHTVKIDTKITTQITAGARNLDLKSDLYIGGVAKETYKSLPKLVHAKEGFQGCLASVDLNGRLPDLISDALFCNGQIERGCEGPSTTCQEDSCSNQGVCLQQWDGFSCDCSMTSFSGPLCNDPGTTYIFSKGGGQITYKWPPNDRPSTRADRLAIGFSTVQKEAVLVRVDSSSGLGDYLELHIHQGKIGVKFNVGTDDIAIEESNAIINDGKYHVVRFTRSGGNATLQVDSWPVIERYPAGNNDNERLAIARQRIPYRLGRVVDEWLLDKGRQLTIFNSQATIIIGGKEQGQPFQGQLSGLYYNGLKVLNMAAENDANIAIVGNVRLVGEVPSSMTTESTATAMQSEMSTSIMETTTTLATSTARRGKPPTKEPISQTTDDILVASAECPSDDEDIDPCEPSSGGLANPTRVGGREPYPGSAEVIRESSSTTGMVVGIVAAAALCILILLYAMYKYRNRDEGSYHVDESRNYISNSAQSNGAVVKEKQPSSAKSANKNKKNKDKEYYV
# UniProt Q9EPN1: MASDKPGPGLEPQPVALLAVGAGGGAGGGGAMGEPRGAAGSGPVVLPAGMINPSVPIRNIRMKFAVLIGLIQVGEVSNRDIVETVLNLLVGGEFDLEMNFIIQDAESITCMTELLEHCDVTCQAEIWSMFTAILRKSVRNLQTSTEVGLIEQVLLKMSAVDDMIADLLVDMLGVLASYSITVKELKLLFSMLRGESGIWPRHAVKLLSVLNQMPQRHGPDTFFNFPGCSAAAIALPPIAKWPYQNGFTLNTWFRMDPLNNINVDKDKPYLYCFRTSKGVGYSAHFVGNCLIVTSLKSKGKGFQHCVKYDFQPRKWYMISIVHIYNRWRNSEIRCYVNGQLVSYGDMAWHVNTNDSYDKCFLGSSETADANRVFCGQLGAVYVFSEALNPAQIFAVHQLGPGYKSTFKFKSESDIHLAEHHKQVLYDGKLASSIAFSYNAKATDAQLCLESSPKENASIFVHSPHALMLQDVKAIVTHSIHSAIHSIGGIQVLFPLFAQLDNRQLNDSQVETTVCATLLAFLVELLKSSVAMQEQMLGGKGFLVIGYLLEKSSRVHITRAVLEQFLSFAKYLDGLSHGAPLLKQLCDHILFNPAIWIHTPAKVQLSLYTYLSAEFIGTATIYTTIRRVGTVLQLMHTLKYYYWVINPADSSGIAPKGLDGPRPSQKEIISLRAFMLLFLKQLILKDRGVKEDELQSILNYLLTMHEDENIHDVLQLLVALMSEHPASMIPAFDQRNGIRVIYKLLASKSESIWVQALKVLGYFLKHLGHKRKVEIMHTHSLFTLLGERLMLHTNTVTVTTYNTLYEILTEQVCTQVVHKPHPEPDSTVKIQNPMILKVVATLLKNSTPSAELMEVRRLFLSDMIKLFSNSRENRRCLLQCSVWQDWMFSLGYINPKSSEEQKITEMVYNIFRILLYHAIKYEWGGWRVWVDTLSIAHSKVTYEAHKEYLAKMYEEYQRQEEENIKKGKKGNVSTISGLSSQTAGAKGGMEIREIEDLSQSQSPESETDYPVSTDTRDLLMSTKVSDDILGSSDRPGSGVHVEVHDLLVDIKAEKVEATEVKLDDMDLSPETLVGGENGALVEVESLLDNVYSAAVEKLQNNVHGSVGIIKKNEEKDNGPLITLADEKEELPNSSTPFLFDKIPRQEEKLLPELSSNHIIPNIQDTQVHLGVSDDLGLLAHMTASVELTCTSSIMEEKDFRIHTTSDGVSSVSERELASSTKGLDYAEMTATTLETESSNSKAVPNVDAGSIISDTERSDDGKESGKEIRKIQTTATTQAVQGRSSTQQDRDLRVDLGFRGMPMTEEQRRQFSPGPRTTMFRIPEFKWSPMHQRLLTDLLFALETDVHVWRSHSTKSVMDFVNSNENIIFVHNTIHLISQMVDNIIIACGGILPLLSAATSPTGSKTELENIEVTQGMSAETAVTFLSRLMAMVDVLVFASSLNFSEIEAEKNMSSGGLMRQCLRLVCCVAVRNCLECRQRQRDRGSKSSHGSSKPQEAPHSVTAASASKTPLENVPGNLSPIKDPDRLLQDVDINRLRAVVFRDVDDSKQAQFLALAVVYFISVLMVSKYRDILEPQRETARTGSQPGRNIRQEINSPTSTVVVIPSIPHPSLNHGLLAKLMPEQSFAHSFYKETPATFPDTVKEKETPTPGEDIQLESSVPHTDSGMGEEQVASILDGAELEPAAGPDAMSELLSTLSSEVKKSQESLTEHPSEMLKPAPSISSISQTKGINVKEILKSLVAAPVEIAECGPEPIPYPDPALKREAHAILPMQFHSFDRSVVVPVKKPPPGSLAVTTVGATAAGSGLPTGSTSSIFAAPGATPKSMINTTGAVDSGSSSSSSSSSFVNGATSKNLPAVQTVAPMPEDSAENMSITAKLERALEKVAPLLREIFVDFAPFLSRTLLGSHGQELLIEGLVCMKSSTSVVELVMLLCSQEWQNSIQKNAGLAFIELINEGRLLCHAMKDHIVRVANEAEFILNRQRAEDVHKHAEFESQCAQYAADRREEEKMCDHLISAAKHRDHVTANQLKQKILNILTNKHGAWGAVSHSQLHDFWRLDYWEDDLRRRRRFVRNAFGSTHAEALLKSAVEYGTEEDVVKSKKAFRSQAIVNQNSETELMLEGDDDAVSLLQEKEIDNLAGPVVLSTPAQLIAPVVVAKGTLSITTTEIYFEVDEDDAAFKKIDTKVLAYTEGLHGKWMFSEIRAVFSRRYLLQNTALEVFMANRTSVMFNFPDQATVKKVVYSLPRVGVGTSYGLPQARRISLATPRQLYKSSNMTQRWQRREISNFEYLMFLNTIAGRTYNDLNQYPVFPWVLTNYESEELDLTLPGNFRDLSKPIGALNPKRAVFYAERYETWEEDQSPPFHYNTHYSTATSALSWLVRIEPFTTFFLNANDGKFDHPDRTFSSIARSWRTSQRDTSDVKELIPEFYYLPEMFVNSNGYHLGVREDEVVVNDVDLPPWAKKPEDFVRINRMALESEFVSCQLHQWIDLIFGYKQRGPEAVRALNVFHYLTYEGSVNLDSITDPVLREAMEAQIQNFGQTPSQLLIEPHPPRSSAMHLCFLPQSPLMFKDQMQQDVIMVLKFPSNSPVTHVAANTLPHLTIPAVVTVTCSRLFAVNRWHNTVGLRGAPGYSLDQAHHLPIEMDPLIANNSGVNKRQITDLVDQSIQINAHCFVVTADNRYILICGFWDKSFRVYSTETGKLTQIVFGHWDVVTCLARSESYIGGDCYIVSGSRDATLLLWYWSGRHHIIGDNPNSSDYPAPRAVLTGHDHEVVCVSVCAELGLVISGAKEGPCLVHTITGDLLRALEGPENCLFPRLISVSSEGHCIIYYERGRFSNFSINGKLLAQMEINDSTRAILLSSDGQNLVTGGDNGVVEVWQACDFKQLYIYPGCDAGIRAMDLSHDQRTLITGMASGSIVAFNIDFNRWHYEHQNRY
# UniProt Q99K10, residues 46-843: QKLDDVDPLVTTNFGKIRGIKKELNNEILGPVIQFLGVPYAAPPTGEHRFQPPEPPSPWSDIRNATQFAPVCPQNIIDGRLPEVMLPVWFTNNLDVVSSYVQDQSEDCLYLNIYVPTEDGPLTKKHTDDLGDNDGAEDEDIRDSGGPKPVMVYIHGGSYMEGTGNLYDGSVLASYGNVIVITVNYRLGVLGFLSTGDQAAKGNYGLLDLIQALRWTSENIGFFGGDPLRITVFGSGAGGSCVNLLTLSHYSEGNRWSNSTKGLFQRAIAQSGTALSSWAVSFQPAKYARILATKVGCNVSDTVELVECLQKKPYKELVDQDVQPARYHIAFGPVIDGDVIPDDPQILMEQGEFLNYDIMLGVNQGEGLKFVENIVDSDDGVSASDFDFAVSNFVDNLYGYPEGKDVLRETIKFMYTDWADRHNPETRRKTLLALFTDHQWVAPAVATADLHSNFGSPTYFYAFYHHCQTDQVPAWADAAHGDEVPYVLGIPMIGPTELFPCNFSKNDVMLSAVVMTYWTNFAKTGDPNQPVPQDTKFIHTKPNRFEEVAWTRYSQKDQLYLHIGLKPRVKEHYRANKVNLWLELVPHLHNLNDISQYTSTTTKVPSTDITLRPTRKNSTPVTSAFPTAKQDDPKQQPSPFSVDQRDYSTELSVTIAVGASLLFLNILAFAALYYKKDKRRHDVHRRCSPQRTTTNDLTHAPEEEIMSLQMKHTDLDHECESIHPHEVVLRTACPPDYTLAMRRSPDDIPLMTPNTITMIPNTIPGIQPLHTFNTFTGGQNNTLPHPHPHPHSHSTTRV
# UniProt Q69ZK9, residues 15-836: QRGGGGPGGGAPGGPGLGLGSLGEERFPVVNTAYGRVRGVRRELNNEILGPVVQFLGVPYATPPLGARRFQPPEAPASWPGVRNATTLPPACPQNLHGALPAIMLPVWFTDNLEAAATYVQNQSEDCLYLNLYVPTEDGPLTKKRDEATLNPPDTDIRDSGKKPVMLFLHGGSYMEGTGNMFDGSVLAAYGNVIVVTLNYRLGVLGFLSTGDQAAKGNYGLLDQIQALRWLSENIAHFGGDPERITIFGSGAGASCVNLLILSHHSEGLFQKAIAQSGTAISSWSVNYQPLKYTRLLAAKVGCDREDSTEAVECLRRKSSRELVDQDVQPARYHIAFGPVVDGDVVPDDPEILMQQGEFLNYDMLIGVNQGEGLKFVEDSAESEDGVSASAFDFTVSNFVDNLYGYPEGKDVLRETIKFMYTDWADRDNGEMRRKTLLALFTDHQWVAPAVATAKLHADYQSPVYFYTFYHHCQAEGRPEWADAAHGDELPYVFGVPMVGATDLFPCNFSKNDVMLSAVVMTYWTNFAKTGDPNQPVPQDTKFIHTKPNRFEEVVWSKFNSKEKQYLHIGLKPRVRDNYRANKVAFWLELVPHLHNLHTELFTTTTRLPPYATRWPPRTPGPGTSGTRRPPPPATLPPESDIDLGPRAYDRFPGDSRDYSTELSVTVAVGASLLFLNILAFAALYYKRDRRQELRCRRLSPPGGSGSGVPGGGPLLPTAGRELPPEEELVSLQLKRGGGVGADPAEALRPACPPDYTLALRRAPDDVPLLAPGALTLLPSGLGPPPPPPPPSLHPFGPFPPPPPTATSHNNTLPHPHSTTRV
# Target: Venus-GABAA receptor α1 subunit fusion (inhibitory synapse affinity tag) (UniProt P62812)
# Assay: affinity purification with mass spectrometry; same immunopurification via VGABAARα1 (tagged sample) or eGFP (control sample); FASP II on-membrane digestion, LC-MS/MS on LTQ-Orbitrap XL, X!Tandem search, cutoff E = 10^-4; two replicates; proteins found with eGFP subtracted
row,Substance,binding
1,Neurexin I (from UniProt Q9CS84 31-1514),binds
2,Neurobeachin (from UniProt Q9EPN1 1-2936),binds
3,Neuroligin 1 (from UniProt Q99K10 46-843),no binding
4,Neuroligin 2 (from UniProt Q69ZK9 15-836),binds
5,Neuroligin 3 (from UniProt Q8BYM5 35-825),binds

# Results are given in words; binding and its absence hold for the method and conditions named. Binding seen in cells or lysates may run through a third protein. Here binding means that the protein was enriched with, or labelled near, the bait; the list need not be complete. A no says only that the protein was not detected with the bait.
